PubChem BioAssay AID1259308 – NCATS | 2017
Shown is a random part of about 59,000 reagents. About 1,510 of them (2.6%) count as active. 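Calls use total luciferase alone and ignore viability, so some active siRNAs may act by altering cell number.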 Unmarked entries are inactive.

Purpose: 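Genes whose loss raises luciferase production in HEK293 cells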 (primary screen)
Cells: human HEK293 embryonic kidney cells stably expressing firefly luciferase (HEK-CMV-Luc2-Hygro)
Knock-down reagent: single siRNA against human genes, 0.8 pmol siRNA per well
Time to read-out: 72 h
Measurement: 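Luciferase light (ONE-Glo) measured on one replicate plate set and viability (CellTiter-Glo) on the other, scaled to a negative control siRNA, with robust z-scores and luciferase per cell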
Scale: total luciferase, z-score and total luciferase, % of control: higher = more reporter protein produced; luciferase per cell, z-score: higher = more reporter output per viable cell; viable cells, % of control: higher = more viable cells
Call rule: 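Active when the median/MAD z-score for overall luciferase is greater than 3; a gene was taken forward for validation with new siRNAs if at least two of its three siRNAs passed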
Calls: active = raised luciferase; inactive = no rise

no.	target gene	PubChem SID	total luciferase, z-score	total luciferase, % of control	luciferase per cell, z-score	viable cells, % of control
1	CAMSAP2	SID160735890	-0.149	78.9	0.231	83
2	CAMSAP2	SID160735891	-1.79	46.2	-2.34	95.7
3	CAMSAP2	SID160735892	0.0739	83.4	-0.321	101
4	MAMLD1 (mastermind like domain containing 1)	SID160724425	1.38	109	1.03	93.3
5	MAMLD1 (mastermind like domain containing 1)	SID160724432	1.41	110	2.64	61.3
6	MAMLD1 (mastermind like domain containing 1)	SID160724440	-1.18	58.5	-1.06	86.5
7	RFX2 (regulatory factor X2)	SID160715843	-2.98	22.6	-1.41	36.6
8	RFX2 (regulatory factor X2)	SID160715844	-0.844	65.1	-0.574	84.6
9	RFX2 (regulatory factor X2)	SID160715846	-0.426	73.4	-0.681	98.1
10	IHO1 (interactor of HORMAD1 1)	SID160764310	-0.59	70.2	-0.591	91.6
11	IHO1 (interactor of HORMAD1 1)	SID160764311	-0.68	68.4	-0.661	90.9
12	IHO1 (interactor of HORMAD1 1)	SID160764312	-1.23	57.5	-2.43	122
13	LIPA (lipase A, lysosomal acid type)	SID160776634	0.646	94.7	0.246	99.2
14	LIPA (lipase A, lysosomal acid type)	SID160776635	-0.388	74.2	-0.216	87.7
15	LIPA (lipase A, lysosomal acid type)	SID160776636	0.31	88.1	0.26	91.9
16	GPR4 (G protein-coupled receptor 4)	SID160773023	-0.104	79.8	0.681	74.6
17	GPR4 (G protein-coupled receptor 4)	SID160773032	-0.292	76.1	-0.677	102
18	GPR4 (G protein-coupled receptor 4)	SID160773043	1.08	103	1.62	75.4
19	MRAP (melanocortin 2 receptor accessory protein)	SID160733639	0.361	89.1	0.0943	97.1
20	MRAP (melanocortin 2 receptor accessory protein)	SID160744963	0.338	88.6	-0.443	111
21	MRAP (melanocortin 2 receptor accessory protein)	SID160744964	1.43	110	1.18	90.3
22	NDUFS6 (NADH:ubiquinone oxidoreductase subunit S6)	SID160777913	1.47	111	1.27	89
23	NDUFS6 (NADH:ubiquinone oxidoreductase subunit S6)	SID160777914	0.541	92.6	0.288	96
24	NDUFS6 (NADH:ubiquinone oxidoreductase subunit S6)	SID160777915	0.843	98.6	0.876	87.5
25	CD2AP (CD2 associated protein)	SID160736668	0.0922	83.7	-0.49	106
26	CD2AP (CD2 associated protein)	SID160736669	-1.43	53.4	-1.25	83
27	CD2AP (CD2 associated protein)	SID160736670	-1.09	60.1	-1.04	88.3
28	ANO6 (anoctamin 6)	SID160732643	-0.462	72.7	-0.33	88.6
29	ANO6 (anoctamin 6)	SID160732644	-0.464	72.7	-0.331	88.6
30	ANO6 (anoctamin 6)	SID160760647	0.25	86.9	1.21	70.6
31	LCA5L (lebercilin LCA5 like)	SID160758901	-1.29	56.2	-1.16	85.2
32	LCA5L (lebercilin LCA5 like)	SID160758902	1.01	102	0.746	93.7
33	LCA5L (lebercilin LCA5 like)	SID160758903	0.518	92.2	-0.163	108
34	CEP57 (centrosomal protein 57)	SID160722851	-0.187	78.2	-1.02	114
35	CEP57 (centrosomal protein 57)	SID160722852	0.706	95.9	0.721	88.7
36	CEP57 (centrosomal protein 57)	SID160722853	-1.41	53.8	-2.07	104
37	SNX19 (sorting nexin 19)	SID160766914	1.02	102	0.384	103
38	SNX19 (sorting nexin 19)	SID160766915	0.776	97.3	0.232	102
39	SNX19 (sorting nexin 19)	SID160766916	2.01	122	1.63	88.7
40	FAAH (fatty acid amide hydrolase)	SID160763285	2.34	128	1.45	97.9
41	FAAH (fatty acid amide hydrolase)	SID160763296	0.648	94.8	0.457	93.9
42	FAAH (fatty acid amide hydrolase)	SID160763306	-2.44	33.4	-2.32	68.8
43	ATP6V1G3 (ATPase H+ transporting V1 subunit G3)	SID160730584	-0.0133	81.6	-0.939	117
44	ATP6V1G3 (ATPase H+ transporting V1 subunit G3)	SID160756590	-0.35	74.9	-0.857	105
45	ATP6V1G3 (ATPase H+ transporting V1 subunit G3)	SID160756592	0.268	87.2	-0.209	103
46	SAMD9 (sterile alpha motif domain containing 9)	SID160742207	-0.00646	81.8	-0.123	94.4
47	SAMD9 (sterile alpha motif domain containing 9)	SID160742208	-1.22	57.6	-1.24	89.3
48	SAMD9 (sterile alpha motif domain containing 9)	SID160742209	-0.447	73	-0.84	102
49	NADK (NAD kinase)	SID160731753	0.0733	83.3	-0.25	99.5
50	NADK (NAD kinase)	SID160748290	-0.16	78.7	-0.0647	89.5
51	NADK (NAD kinase)	SID160748292	-1.43	53.4	-1.45	87.4
52	ADAMTSL1 (ADAMTS like 1)	SID160754403	0.322	88.3	1.21	71.7
53	ADAMTSL1 (ADAMTS like 1)	SID160754404	-1.01	61.9	-0.053	70.1
54	ADAMTSL1 (ADAMTS like 1)	SID160754405	-0.612	69.7	-0.741	94.7
55	ADAMTSL1 (ADAMTS like 1)	SID160761212	-0.456	72.8	-0.805	101
56	ADAMTSL1 (ADAMTS like 1)	SID160761213	-1.24	57.2	-0.536	73.6
57	ADAMTSL1 (ADAMTS like 1)	SID160761214	0.427	90.4	0.109	98.1

Part of the list above, showing only “viable cells, % of control”:
MAMLD1 (mastermind like domain containing 1) [SID160724432]	61.3
MAMLD1 (mastermind like domain containing 1) [SID160724440]	86.5
RFX2 (regulatory factor X2) [SID160715843]	36.6
RFX2 (regulatory factor X2) [SID160715844]	84.6
RFX2 (regulatory factor X2) [SID160715846]	98.1
IHO1 (interactor of HORMAD1 1) [SID160764310]	91.6
